Assay results: patent US11225470B2, “Tetrazolinone compounds and its use as pest control agents” (SUMITOMO CHEMICAL COMPANY, LIMITED, priority 2016, dated 2022)
Some of these results come from one statement about several compounds together.

system: powdery mildew fungi (Sphaerotheca fuliginea; QoI resistant strain, cytochrome b glycine 143 mutated to alanine); format: in vivo; conditions: 200 ppm foliar spray; cucumber cv SAGAMIHANJIRO; observed after 8 days

Row | Structure (SMILES) | lesion area compared to the lesion area in an untreated cucumber [%]
1 | CCC(=NN=C1CCc2ccc(OC)cc21)OCc1c(C)cccc1-n1nnn(C)c1=O [E-8] | ≤ 30
2 | CCC(=NN=C(C)c1nn(C)c2ccccc12)OCc1c(C)cccc1-n1nnn(C)c1=O [D-16] | ≤ 30
3 | CC=CCON=C(C)C(C)=NN=C(CC)OCc1c(C)cccc1-n1nnn(C)c1=O [C-3] | ≤ 30
4 | CCON=C(C)C(C)=NN=C(CC)OCc1c(C)cccc1-n1nnn(C)c1=O [A-2] | ≤ 30
5 | CCC(=NN=C(C)C(C)=NOCc1cccc(C)c1)OCc1c(C)cccc1-n1nnn(C)c1=O [C-11] | ≤ 30
6 | C#CCON=C(C)C(C)=NN=C(CC)OCc1c(C)cccc1-n1nnn(C)c1=O [C-5] | ≤ 30
7 | CCC(=NN=C(C)c1cc2ccccc2n1C)OCc1c(C)cccc1-n1nnn(C)c1=O [D-6] | ≤ 30
8 | CCC(=NN=C(C)c1cc2ccccc2o1)OCc1c(C)cccc1-n1nnn(C)c1=O [1-2] | ≤ 30
9 | CCC(=NN=C1CCOc2ccccc21)OCc1c(Cl)cccc1-n1nnn(C)c1=O [E-13] | ≤ 30
10 | CCC(=NN=C(C)c1ccc2c(c1)CCCC2)OCc1c(C)cccc1-n1nnn(C)c1=O [D-13] | ≤ 30
11 | CCC(=NN=C(C)c1nc2ccccc2o1)OCc1c(C)cccc1-n1nnn(C)c1=O [D-15] | ≤ 30
12 | CCC(=NN=C1CCOc2ccccc21)OCc1c(C)cccc1-n1nnn(C)c1=O [E-11] | ≤ 30
13 | CCC(=NN=C(C)C(C)=NOCc1ccccc1C)OCc1c(C)cccc1-n1nnn(C)c1=O [C-7] | ≤ 30
14 | CCC(=NN=C(C)c1cc(C)n(C)n1)OCc1c(C)cccc1-n1nnn(C)c1=O [D-18] | ≤ 30
15 | CCC(=NN=C(C)C(C)=NOCc1cccc(OC)c1)OCc1c(C)cccc1-n1nnn(C)c1=O [C-10] | ≤ 30
16 | CCC(=NN=C1CCc2c(OC)cccc21)OCc1c(C)cccc1-n1nnn(C)c1=O [E-6] | ≤ 30
17 | CCC(=NN=C(C)c1ccnn1CC)OCc1c(C)cccc1-n1nnn(C)c1=O [D-24] | ≤ 30
18 | CCC(=NN=C1CCc2cccc(OC)c21)OCc1c(C)cccc1-n1nnn(C)c1=O [E-9] | ≤ 30
19 | CCC(=NN=C(C)c1cnccn1)OCc1c(C)cccc1-n1nnn(C)c1=O [1-4] | ≤ 30
20 | CCC(=NN=C(C)c1cnc2ccccc2c1)OCc1c(C)cccc1-n1nnn(C)c1=O [D-5] | ≤ 30
21 | C=CCON=C(C)C(C)=NN=C(CC)OCc1c(C)cccc1-n1nnn(C)c1=O [C-2] | ≤ 30
22 | CCC(=NN=C1CCc2cc(F)ccc21)OCc1c(C)cccc1-n1nnn(C)c1=O [E-3] | ≤ 30
23 | CCC(=NN=C(C)c1nc2ccccc2n1C)OCc1c(C)cccc1-n1nnn(C)c1=O [D-14] | ≤ 30
24 | CCC(=NN=C(C)c1ccco1)OCc1c(C)cccc1-n1nnn(C)c1=O [1-1] | ≤ 30
25 | CCC(=NN=C1CCOc2c(F)ccc(F)c21)OCc1c(C)cccc1-n1nnn(C)c1=O [E-27] | ≤ 30
26 | CCC(=NN=C(C)c1nc2ccccc2s1)OCc1c(C)cccc1-n1nnn(C)c1=O [1-5] | ≤ 30

Row | Structure (SMILES) | lesion area compared to the lesion area in an untreated cucumber [%]
27 | CCC(=NN=C1CCOc2ccc(OC)cc21)OCc1c(C)cccc1-n1nnn(C)c1=O [E-18] | ≤ 30
28 | CCC(=NN=C1CCOc2cc(F)cc(F)c21)OCc1c(C)cccc1-n1nnn(C)c1=O [E-24] | ≤ 30
29 | CCC(=NN=C(C)C(C)=NOCc1ccc(C)cc1)OCc1c(C)cccc1-n1nnn(C)c1=O [C-8] | ≤ 30
30 | CCC(=NN=C1CCOc2ccc(C)cc21)OCc1c(C)cccc1-n1nnn(C)c1=O [E-26] | ≤ 30
31 | CCC(=NN=C1CCOc2ccc(F)cc21)OCc1c(C)cccc1-n1nnn(C)c1=O [E-17] | ≤ 30
32 | CCC(=NN=C1CC[S+]([O-])c2ccccc21)OCc1c(C)cccc1-n1nnn(C)c1=O (stereo not drawn) [E-29] | ≤ 30
33 | CCC(=NN=C1CCOc2cc(F)ccc21)OCc1c(C)cccc1-n1nnn(C)c1=O [E-16] | ≤ 30
34 | CCC(=NN=C1CCOc2cccc(F)c21)OCc1c(C)cccc1-n1nnn(C)c1=O [E-21] | ≤ 30
35 | CCC(=NN=C(C)C(C)=NOCc1ccccc1)OCc1c(C)cccc1-n1nnn(C)c1=O [C-1] | ≤ 30
36 | CCC(=NN=C(C)c1cn(C)c2ncccc12)OCc1c(C)cccc1-n1nnn(C)c1=O [D-20] | ≤ 30
37 | CSC(=Nc1ccc(Oc2ccccc2)cc1)SCc1c(C)cccc1-n1nnn(C)c1=O [4-7] | ≤ 30
38 | CCC(=NN=C1CCOc2c(F)cc(F)cc21)OCc1c(C)cccc1-n1nnn(C)c1=O [E-23] | ≤ 30
39 | CCC(=NN=C1CCOc2ccccc21)OCc1c(OC)cccc1-n1nnn(C)c1=O [E-12] | ≤ 30
40 | CCC(=NN=C(C)c1cccc2c1CCCC2)OCc1c(C)cccc1-n1nnn(C)c1=O [D-12] | ≤ 30
41 | CCC(=NN=C(C)c1cn(C)c2ccccc12)OCc1c(C)cccc1-n1nnn(C)c1=O [D-17] | ≤ 30
42 | CCC(=NN=C(C)c1ccn(CC)n1)OCc1c(C)cccc1-n1nnn(C)c1=O [D-23] | ≤ 30
43 | CCC(=NN=C1CCOc2cc(OC)ccc21)OCc1c(C)cccc1-n1nnn(C)c1=O [E-30] | ≤ 30
44 | CCC(=NN=C1CCOc2ccc(Cl)cc21)OCc1c(C)cccc1-n1nnn(C)c1=O [E-22] | ≤ 30
45 | CCC(=NN=C(C)c1cc2ccccc2s1)OCc1c(C)cccc1-n1nnn(C)c1=O [1-3] | ≤ 30
46 | CCC(=NN=C1CCc2c(F)cccc21)OCc1c(C)cccc1-n1nnn(C)c1=O [E-2] | ≤ 30
47 | CCC(=NN=C1CCc2ccc(F)cc21)OCc1c(C)cccc1-n1nnn(C)c1=O [E-4] | ≤ 30
48 | CSC(=Nc1ccc(OC(F)(F)F)cc1)SCc1c(C)cccc1-n1nnn(C)c1=O [4-8] | ≤ 30
49 | CCC(=NN=C1CCOc2c(F)cccc21)OCc1c(C)cccc1-n1nnn(C)c1=O [E-15] | ≤ 30
50 | CCC(=NN=C1CCCc2ccccc21)OCc1c(C)cccc1-n1nnn(C)c1=O [E-25] | ≤ 30
51 | CCC(=NN=C(C)C(C)=NOCC1CC1)OCc1c(C)cccc1-n1nnn(C)c1=O [C-4] | ≤ 30

same assay, conditions: 500 ppm foliar spray; cucumber cv SAGAMIHANJIRO; observed after 8 days

Row | Structure (SMILES) | lesion area compared to the lesion area in an untreated cucumber [%]
52 | CCC(=NN=C1CCc2ccc(OC)cc21)OCc1c(C)cccc1-n1nnn(C)c1=O [E-8] | ≤ 30
53 | CC=CCON=C(C)C(C)=NN=C(CC)OCc1c(C)cccc1-n1nnn(C)c1=O [C-3] | ≤ 30
54 | CCON=C(C)C(C)=NN=C(CC)OCc1c(C)cccc1-n1nnn(C)c1=O [A-2] | ≤ 30
55 | CSC(=Nc1cccc(C(F)(F)F)c1)SCc1c(C)cccc1-n1nnn(C)c1=O [4-1] | ≤ 30
56 | CCC(=NN=C(C)C(C)=NOCc1cccc(C)c1)OCc1c(C)cccc1-n1nnn(C)c1=O [C-11] | ≤ 30
57 | C#CCON=C(C)C(C)=NN=C(CC)OCc1c(C)cccc1-n1nnn(C)c1=O [C-5] | ≤ 30
58 | CCC(=NN=C(C)c1cc2ccccc2n1C)OCc1c(C)cccc1-n1nnn(C)c1=O [D-6] | ≤ 30
59 | CCC(=NN=C(C)c1cc2ccccc2o1)OCc1c(C)cccc1-n1nnn(C)c1=O [1-2] | ≤ 30
60 | CCC(=NN=C1CCOc2ccccc21)OCc1c(Cl)cccc1-n1nnn(C)c1=O [E-13] | ≤ 30
61 | CCC(=NN=C1CCOc2ccccc21)OCc1c(C)cccc1-n1nnn(C)c1=O [E-11] | ≤ 30
62 | CCC(=NN=C(C)C(C)=NOCc1ccccc1C)OCc1c(C)cccc1-n1nnn(C)c1=O [C-7] | ≤ 30
63 | CCC(=NN=C(C)c1cc(C)n(C)n1)OCc1c(C)cccc1-n1nnn(C)c1=O [D-18] | ≤ 30
64 | CCCCN=C(SC)SCc1c(C)cccc1-n1nnn(C)c1=O [3-16] | ≤ 30
65 | CCC(=NN=C(C)C(C)=NOCc1cccc(OC)c1)OCc1c(C)cccc1-n1nnn(C)c1=O [C-10] | ≤ 30
66 | CCC(=NN=C1CCc2c(OC)cccc21)OCc1c(C)cccc1-n1nnn(C)c1=O [E-6] | ≤ 30
67 | CCC(=NN=C(C)c1cnccn1)OCc1c(C)cccc1-n1nnn(C)c1=O [1-4] | ≤ 30
68 | CCC(=NN=C(C)c1cnc2ccccc2c1)OCc1c(C)cccc1-n1nnn(C)c1=O [D-5] | ≤ 30
69 | C=CCON=C(C)C(C)=NN=C(CC)OCc1c(C)cccc1-n1nnn(C)c1=O [C-2] | ≤ 30
70 | CCC(=NN=C1CCc2cc(F)ccc21)OCc1c(C)cccc1-n1nnn(C)c1=O [E-3] | ≤ 30
71 | CCC(=NN=C(C)c1ccco1)OCc1c(C)cccc1-n1nnn(C)c1=O [1-1] | ≤ 30
72 | CCC(=NN=C1CCOc2c(F)ccc(F)c21)OCc1c(C)cccc1-n1nnn(C)c1=O [E-27] | ≤ 30
73 | CCC(=NN=C(C)c1nc2ccccc2s1)OCc1c(C)cccc1-n1nnn(C)c1=O [1-5] | ≤ 30
74 | CCC(=NN=C1CCOc2ccc(OC)cc21)OCc1c(C)cccc1-n1nnn(C)c1=O [E-18] | ≤ 30

Row | Structure (SMILES) | lesion area compared to the lesion area in an untreated cucumber [%]
75 | CCC(=NN=C1CCOc2cc(F)cc(F)c21)OCc1c(C)cccc1-n1nnn(C)c1=O [E-24] | ≤ 30
76 | CCC(=NN=C(C)C(C)=NOCc1ccc(C)cc1)OCc1c(C)cccc1-n1nnn(C)c1=O [C-8] | ≤ 30
77 | CCC(=NN=C1CCOc2ccc(C)cc21)OCc1c(C)cccc1-n1nnn(C)c1=O [E-26] | ≤ 30
78 | CCC(=NN=C1CCOc2ccc(F)cc21)OCc1c(C)cccc1-n1nnn(C)c1=O [E-17] | ≤ 30
79 | CCC(=NN=C1CC[S+]([O-])c2ccccc21)OCc1c(C)cccc1-n1nnn(C)c1=O (stereo not drawn) [E-29] | ≤ 30
80 | CCC(=NN=C1CCOc2cc(F)ccc21)OCc1c(C)cccc1-n1nnn(C)c1=O [E-16] | ≤ 30
81 | CCC(=NN=C1CCOc2cccc(F)c21)OCc1c(C)cccc1-n1nnn(C)c1=O [E-21] | ≤ 30
82 | CCc1ccc(N=C(SC)SCc2c(C)cccc2-n2nnn(C)c2=O)cc1 [3-8] | ≤ 30
83 | CCC(=NN=C(C)C(C)=NOCc1ccccc1)OCc1c(C)cccc1-n1nnn(C)c1=O [C-1] | ≤ 30
84 | CCC(=NN=C(C)c1cn(C)c2ncccc12)OCc1c(C)cccc1-n1nnn(C)c1=O [D-20] | ≤ 30
85 | CCC(=NN=C1CCOc2c(F)cc(F)cc21)OCc1c(C)cccc1-n1nnn(C)c1=O [E-23] | ≤ 30
86 | CCC(=NN=C1CCOc2ccccc21)OCc1c(OC)cccc1-n1nnn(C)c1=O [E-12] | ≤ 30
87 | CCC(=NN=C1CCOc2cc(OC)ccc21)OCc1c(C)cccc1-n1nnn(C)c1=O [E-30] | ≤ 30
88 | CCC(=NN=C1CCOc2ccc(Cl)cc21)OCc1c(C)cccc1-n1nnn(C)c1=O [E-22] | ≤ 30
89 | CCC(=NN=C(C)c1cc2ccccc2s1)OCc1c(C)cccc1-n1nnn(C)c1=O [1-3] | ≤ 30
90 | CCC(=NN=C1CCOc2c(OC)cccc21)OCc1c(C)cccc1-n1nnn(C)c1=O [E-20] | ≤ 30
91 | CCC(=NN=C1CCc2ccc(F)cc21)OCc1c(C)cccc1-n1nnn(C)c1=O [E-4] | ≤ 30
92 | CSC(=NCCc1ccccc1Cl)SCc1c(C)cccc1-n1nnn(C)c1=O [3-31] | ≤ 30
93 | CCC(=NN=C1CCOc2c(F)cccc21)OCc1c(C)cccc1-n1nnn(C)c1=O [E-15] | ≤ 30
94 | CCC(=NN=C1CCCc2ccccc21)OCc1c(C)cccc1-n1nnn(C)c1=O [E-25] | ≤ 30
95 | CSC(=NCCCCc1ccccc1)SCc1c(C)cccc1-n1nnn(C)c1=O [3-29] | ≤ 30
96 | CCC(=NN=C(C)C(C)=NOCC1CC1)OCc1c(C)cccc1-n1nnn(C)c1=O [C-4] | ≤ 30
